Data as given in PubChem BioAssay (NCATS).
The inconclusive results got no clear call from the source; some entries with a clear call stand among them for comparison. For part of these data: Potencies beside an inconclusive call are fits to weak or partial responses and may not hold up. Calls of active or inactive are those of the source. Unless noted, calls follow the shape of the dose curve; as a rule, active = well fitted curve in the direction sought with a large enough effect; inconclusive = small, poorly fitted or top-dose-only effect, or another doubt; inactive = no such curve, though single readings can be large; an effect the other way counts as inactive or inconclusive.

Amino acid sequences for entries named in this document (tags omitted). A change or cut given only in a name is not applied to a line headed by its entry.
UniProt O95398: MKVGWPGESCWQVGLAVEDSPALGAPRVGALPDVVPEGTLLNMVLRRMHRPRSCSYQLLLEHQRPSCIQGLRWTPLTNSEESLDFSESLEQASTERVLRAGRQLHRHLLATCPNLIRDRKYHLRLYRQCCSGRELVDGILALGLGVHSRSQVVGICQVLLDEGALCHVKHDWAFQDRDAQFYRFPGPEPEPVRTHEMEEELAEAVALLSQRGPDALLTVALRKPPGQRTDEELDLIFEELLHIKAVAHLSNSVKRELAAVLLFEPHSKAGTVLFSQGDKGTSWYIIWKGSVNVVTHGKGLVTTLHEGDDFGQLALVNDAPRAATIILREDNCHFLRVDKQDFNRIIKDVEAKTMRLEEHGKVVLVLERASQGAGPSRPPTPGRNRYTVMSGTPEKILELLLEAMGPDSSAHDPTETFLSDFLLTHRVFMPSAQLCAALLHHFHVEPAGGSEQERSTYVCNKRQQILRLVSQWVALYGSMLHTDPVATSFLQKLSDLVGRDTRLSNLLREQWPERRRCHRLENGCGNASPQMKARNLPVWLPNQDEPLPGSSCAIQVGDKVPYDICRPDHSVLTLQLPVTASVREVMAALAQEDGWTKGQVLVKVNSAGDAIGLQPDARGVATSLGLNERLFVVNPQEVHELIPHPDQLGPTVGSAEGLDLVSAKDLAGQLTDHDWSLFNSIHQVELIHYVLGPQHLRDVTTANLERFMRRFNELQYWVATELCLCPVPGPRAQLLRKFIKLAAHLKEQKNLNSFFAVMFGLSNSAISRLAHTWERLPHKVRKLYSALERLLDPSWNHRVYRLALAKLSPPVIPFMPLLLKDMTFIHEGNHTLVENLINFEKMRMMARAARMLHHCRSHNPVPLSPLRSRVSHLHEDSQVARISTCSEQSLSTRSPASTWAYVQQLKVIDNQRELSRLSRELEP
UniProt P08482: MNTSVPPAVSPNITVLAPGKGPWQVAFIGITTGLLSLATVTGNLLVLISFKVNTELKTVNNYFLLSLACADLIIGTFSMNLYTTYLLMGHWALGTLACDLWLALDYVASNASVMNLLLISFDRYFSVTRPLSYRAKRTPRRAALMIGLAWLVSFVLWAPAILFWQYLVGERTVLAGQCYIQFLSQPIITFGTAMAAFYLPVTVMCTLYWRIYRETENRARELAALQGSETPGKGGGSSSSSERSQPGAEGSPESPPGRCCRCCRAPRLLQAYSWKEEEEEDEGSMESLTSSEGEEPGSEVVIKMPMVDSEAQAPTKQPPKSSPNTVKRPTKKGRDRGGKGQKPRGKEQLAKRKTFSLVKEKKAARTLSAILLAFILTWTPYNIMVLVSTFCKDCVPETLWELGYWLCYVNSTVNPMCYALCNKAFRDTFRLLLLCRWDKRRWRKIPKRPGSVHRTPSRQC
UniProt P27695, whole entry, looked up: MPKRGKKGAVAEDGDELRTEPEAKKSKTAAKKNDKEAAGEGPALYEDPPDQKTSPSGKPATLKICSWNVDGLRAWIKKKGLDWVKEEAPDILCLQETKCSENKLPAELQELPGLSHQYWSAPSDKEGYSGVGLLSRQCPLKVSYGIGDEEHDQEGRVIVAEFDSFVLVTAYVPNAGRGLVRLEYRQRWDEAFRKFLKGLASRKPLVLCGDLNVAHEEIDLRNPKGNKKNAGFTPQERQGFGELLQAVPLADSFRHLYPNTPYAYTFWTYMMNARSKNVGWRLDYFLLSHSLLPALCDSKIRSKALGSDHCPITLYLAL
UniProt P54132: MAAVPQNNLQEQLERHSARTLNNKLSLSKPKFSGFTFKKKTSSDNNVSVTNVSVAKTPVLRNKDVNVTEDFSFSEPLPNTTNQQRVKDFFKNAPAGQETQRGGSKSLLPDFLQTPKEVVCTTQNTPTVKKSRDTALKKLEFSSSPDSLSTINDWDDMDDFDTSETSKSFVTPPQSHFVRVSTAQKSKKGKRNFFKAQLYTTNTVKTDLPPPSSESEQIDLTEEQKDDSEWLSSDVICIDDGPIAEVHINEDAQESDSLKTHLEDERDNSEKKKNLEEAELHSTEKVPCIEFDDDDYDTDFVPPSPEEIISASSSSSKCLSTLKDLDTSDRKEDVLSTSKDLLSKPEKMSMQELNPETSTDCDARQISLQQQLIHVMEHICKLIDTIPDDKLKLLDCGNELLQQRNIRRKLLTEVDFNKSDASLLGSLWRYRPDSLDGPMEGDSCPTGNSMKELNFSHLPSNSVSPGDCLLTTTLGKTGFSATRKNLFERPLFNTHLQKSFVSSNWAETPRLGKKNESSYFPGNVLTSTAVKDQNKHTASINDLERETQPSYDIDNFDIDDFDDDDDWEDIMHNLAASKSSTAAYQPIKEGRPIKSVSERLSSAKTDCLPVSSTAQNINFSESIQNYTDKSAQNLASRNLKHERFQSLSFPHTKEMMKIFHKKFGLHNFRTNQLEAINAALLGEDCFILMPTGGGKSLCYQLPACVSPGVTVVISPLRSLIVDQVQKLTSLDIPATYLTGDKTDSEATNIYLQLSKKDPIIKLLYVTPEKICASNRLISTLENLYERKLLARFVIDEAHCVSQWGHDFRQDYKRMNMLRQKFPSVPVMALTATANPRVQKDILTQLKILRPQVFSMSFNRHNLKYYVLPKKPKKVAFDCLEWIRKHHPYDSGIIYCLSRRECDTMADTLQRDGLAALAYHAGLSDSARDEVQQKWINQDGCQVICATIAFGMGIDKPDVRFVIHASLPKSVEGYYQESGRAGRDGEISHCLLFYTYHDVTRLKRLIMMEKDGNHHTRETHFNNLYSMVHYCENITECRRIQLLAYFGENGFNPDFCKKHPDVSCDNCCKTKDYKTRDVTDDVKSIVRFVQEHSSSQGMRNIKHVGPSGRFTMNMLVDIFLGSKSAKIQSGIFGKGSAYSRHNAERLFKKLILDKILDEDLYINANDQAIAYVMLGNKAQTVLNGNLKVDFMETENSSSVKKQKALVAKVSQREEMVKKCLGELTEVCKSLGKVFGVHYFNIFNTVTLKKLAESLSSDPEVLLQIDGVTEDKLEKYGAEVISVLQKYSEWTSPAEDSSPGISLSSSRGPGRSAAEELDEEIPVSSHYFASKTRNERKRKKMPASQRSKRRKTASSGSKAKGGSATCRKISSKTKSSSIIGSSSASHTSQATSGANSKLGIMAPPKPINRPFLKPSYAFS
UniProt O15648: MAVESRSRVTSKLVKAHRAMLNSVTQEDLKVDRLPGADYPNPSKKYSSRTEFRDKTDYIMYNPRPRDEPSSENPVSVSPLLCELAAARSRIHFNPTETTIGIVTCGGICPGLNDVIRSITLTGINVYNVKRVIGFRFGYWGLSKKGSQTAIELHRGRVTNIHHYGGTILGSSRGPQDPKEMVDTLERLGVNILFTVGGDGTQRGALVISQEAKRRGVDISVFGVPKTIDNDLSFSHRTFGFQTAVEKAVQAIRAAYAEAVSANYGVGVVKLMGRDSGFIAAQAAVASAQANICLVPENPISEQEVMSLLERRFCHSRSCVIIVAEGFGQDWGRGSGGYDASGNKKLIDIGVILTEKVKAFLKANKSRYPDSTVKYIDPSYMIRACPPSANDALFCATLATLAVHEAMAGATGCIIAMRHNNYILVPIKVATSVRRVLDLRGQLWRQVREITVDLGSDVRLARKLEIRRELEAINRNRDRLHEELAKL

Experiments:
[1] = target: Rap guanine nucleotide exchange factor 3 (Homo sapiens) (UniProt O95398); assay: Counterscreen qHTS for agonist of cAMP-regulated guanine nucleotide exchange factor 3 (EPAC1) (AID 1645889); details: EPAC1 Rap1B-BODIPY-GDP exchange, fluorescence; activation: at 154 µM (top of the series) unless noted; also: nearly all actives have a fitted effect of over 40% in size; also: potency is read from the fitted curve at half-maximal effect; as to activation: % of control where 0% means no effect
In short: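 Rap1B–BODIPY-GDP (250 nM) with 50 uM GDP; compounds pin-transferred to 9.74 nM–152 uM final (activator) or from 7.32 nM upwards (inhibitor). Fluorescence Ex/Em 480/540 nm read at 5 and 30 min, then after adding cAMP or buffer, at room temperature.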

[2] = target: Mitogen-activated protein kinase 10 (Mus musculus) (UniProt Q61831); assay: JNK3 AlphaScreen Assay (AID 530; active = well fitted curve in either direction with a large enough effect, not every such curve was filed as active; inconclusive = small, poorly fitted or top-dose-only effect, or another doubt;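 also: kinase came from lysate of stimulated human HepG2 cells; potency is read from the fitted curve at half-maximal effect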); details: JNK3 lysate, c-Jun phosphorylation; activity change, negative = inhibition: at 57.1 µM (top of the series)
In short: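 Activity was read by AlphaScreen after JNK3-containing HepG2 lysate (cytokine pre-activated) phosphorylated biotinylated GST-cJun with 10 uM ATP at room temperature. Phospho-Ser73 cJun antibody with Protein-A acceptor beads provided detection.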

[3] = qHTS Assay for Identification of Small Molecule Antagonists for Thrombopoietin (TPO) Signaling Pathway (AID 918); details: TPO-dependent cell signaling reporter, antagonist mode; activity change, negative = inhibition: at 38.5 µM (top of the series)
In short: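 Inhibition read as reduced luciferase luminescence after 24 h at 37 C in IL-3-deprived Ba/F3 cells carrying human TPO receptor and GPIIb-promoter reporter, stimulated with 26 pM TPO (final, its EC50) alongside compound.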

[4] = target: Muscarinic acetylcholine receptor M1 (Rattus norvegicus) (UniProt P08482); assay: qHTS Assay for Antagonists of Acetylcholine Muscarinic M1 Receptor: Kinetic Measurement of Intracellular Calcium Response (AID 943); details: M1-expressing cells, kinetic intracellular calcium fluorescence; series mostly up to 35.3 µM;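 also: Fluo-4 calcium signal as peak divided by basal fluorescence over 4 min; nearly all actives have a fitted effect of over 75% in size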
In short: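 Antagonism measured as reduction of carbachol-evoked (EC80, 100 nM final) calcium flux in rat M1-CHO cells after 10 min compound exposure. Fluo-4 signal read kinetically; ratio of maximal to basal fluorescence.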

[5] = target: DNA repair nuclease/redox regulator APEX1 (Homo sapiens) (UniProt P27695); assay: qHTS Validation Assay for Inhibitors of the Human Apurinic/apyrimidinic Endonuclease 1 (APE1) (AID 1705; also: potency is read from the fitted curve at half-maximal effect); details: purified APE1 endonuclease activity, fluorescence, titration; series mostly up to 57.1 µM
In short: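 Read-out: TAMRA fluorescence (525 nm ex, 598 nm em) from cleavage of a quenched THF abasic-site duplex, 50 nM final; activity taken as intensity change between third and first of three reads 60 s apart.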

[6] = qHTS for differential inhibitors of proliferation of Plasmodium falciparum line W2 (AID 1883); details: Potency: Plasmodium falciparum W2 proliferation inhibition; series mostly up to 28.7 µM;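 also: parasites grown with compound for 72 h before lysis and staining; 0% = vehicle wells and -100% = control inhibitor wells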
[7] = target: RecQ-like DNA helicase BLM (Homo sapiens) (UniProt P54132); assay: qHTS Validation Assay for Inhibitors of Bloom's syndrome helicase (BLM) (AID 2364); details: BLM helicase DNA unwinding, fluorescence, in vitro; series mostly up to 57.1 µM; also: potency is read from the fitted curve at half-maximal effect
In short: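 50 nM BLM preincubated 15 min at room temperature with compound in pH 8.0 Tris buffer containing 2.5 ug/ml poly(dI-dC); started with 200 nM TAMRA/BHQ-2 forked duplex and 2 mM ATP (final). Unwinding read as TAMRA fluorescence increase, two reads 2 h apart.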

[8] = Validation screen for inhibitors of Lassa infection (AID 463096; calls by dose curve; also: potency is read from the fitted curve at half-maximal effect; as to activity change, negative = inhibition: % is scaled to controls: 0 for no effect and ±100 for the full control effect); details: Lassa virus infection, cell-based; series mostly up to 46.1 µM
[9] = target: Endonuclease 4 (Escherichia coli (strain K12)) (UniProt P0A6C1); assay: Counterscreen for APE1 Inhibitors: qHTS Validation Assay for Inhibitors of Endonuclease IV (AID 1708); also: % is scaled to controls: 0 for no effect and ±100 for the full control effect; details: E. coli endonuclease IV, DNA cleavage fluorescence; series mostly up to 57.1 µM
In short: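 Conditions: 2 nM enzyme, 50 nM TAMRA/BHQ-2 substrate, pH 7.5 Tris buffer with 2 mM MgCl2, RT. Compound preincubation 15 min; readout three fluorescence reads 60 s apart, third-minus-first.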

[10] = qHTS for differential inhibitors of proliferation of Plasmodium falciparum line 7G8 (AID 1815); details: Plasmodium falciparum 7G8 proliferation inhibition; series mostly up to 28.7 µM;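 also: potency is read from the fitted curve at half-maximal effect; parasite growth measured after three days of incubation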
[11] = qHTS for differential inhibitors of proliferation of Plasmodium falciparum line GB4 (AID 1816); details: Potency: Plasmodium falciparum GB4 proliferation inhibition; series mostly up to 28.7 µM;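 also: potency is read from the fitted curve at half-maximal effect; parasite growth measured after 72 h incubation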
[12] = qHTS for differential inhibitors of proliferation of Plasmodium falciparum line D10 (AID 1877); details: series mostly up to 28.7 µM;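 also: potency is read from the fitted curve at half-maximal effect; parasites grown with compound for 72 h before DNA staining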
[13] = qHTS for differential inhibitors of proliferation of Plasmodium falciparum line Dd2 (AID 1882); details: Potency: Plasmodium falciparum Dd2 proliferation inhibition; series mostly up to 28.7 µM; also: potency is read from the fitted curve at half-maximal effect; nearly all actives have a fitted effect of over 65% in size
In short: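 SYBR Green DNA fluorescence (ex 485, em 535 nm) after overnight lysis quantifies parasite growth; compound exposure lasted 72 h at 37 C on infected red cells at 2.5% hematocrit, 0.3% parasitemia (final). Artemisinin 0.29 uM and vehicle wells define normalization.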

[14] = qHTS for differential inhibitors of proliferation of Plasmodium falciparum line HB3 (AID 1886); details: Potency: Plasmodium falciparum HB3 proliferation inhibition; series mostly up to 28.7 µM;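 also: potency is read from the fitted curve at half-maximal effect; parasites grown with compound for 72 h before SYBR Green readout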
[15] = Validation screen for small molecules that induce DNA re-replication in MCF 10A normal breast cells (AID 463097); details: MCF 10A cells, DNA re-replication phenotype imaging; series mostly up to 46.1 µM; also: 0% is about no effect; nearly all actives have a fitted effect of over 60% in size
In short: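 250 MCF 10A cells/well; compound pin-transferred; 48 hr, 37 C, 5% CO2; Hoechst 40 min; imaged 405/500-530 nm. Hits = more high-intensity nuclei.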

[16] = qHTS Validation Assay to Find Inhibitors of Chronic Active B-Cell Receptor Signaling (AID 485345; active = well fitted curve in the direction sought with a large enough effect in the main read-out, with a control signal flat, not every such curve was filed as active; inconclusive = small, poorly fitted or top-dose-only effect, or effect the other way, or a change in a side signal; inactive = no such curve, though single readings can be large or run the other way;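 also: 0% = untreated basal cells and 100% = 10 µM MG-132 proteasome inhibitor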); details: ABC-DLBCL cells, chronic BCR signaling reporter; activity change: CBG luciferase, at 46.1 µM (top of the series)
In short: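 TMD8 ABC-DLBCL cells stably carrying doxycycline-inducible IkappaBalpha–green luciferase fusion plus unfused red luciferase; compounds 46 uM to 3 nM, 4 h at 37C with doxycycline. Corrected green/red luminescence ratio normalized to 10 uM MG-132 and basal cell wells; curves fitted.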

[17] = target: ATP-dependent 6-phosphofructokinase (Trypanosoma brucei brucei) (UniProt O15648); assay: qHTS Validation Assay to Find Inhibitors of T. brucei phosphofructokinase (AID 485368); details: T. brucei PFK enzyme assay, qHTS 7-point titration; series mostly up to 57.5 µM
In short: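 Inhibition derived from concentration-response curves of luminescence, ranked by r2, response size and curve class; the underlying reaction used 1.25 nM PFK, 0.1 mM ATP and 0.5 mM F6P, 45 min, room temperature.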

[18] = Quantitative high throughput screen for delayed death inhibitors of the malarial parasite plastid, 96 hour incubation (AID 488745); details: Plasmodium falciparum growth; series mostly up to 28.7 µM; also: potency is read from the fitted curve at half-maximal effect; nearly all actives have a fitted effect of over 70% in size
In short: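 Decreased firefly luciferase luminescence indicates inhibited growth of reporter-integrated P. falciparum after two generations (96 h, 37 C, 5% CO2). Infected erythrocytes at 0.1% parasitemia, 2% hematocrit, in Albumax-supplemented RPMI 1640.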

[19] = Quantitative high throughput screen for delayed death inhibitors of the malarial parasite plastid, 48 hour incubation (AID 488752); details: Plasmodium falciparum growth; series mostly up to 28.7 µM; also: potency is read from the fitted curve at half-maximal effect; nearly all actives have a fitted effect of over 65% in size
In short: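 One-generation (48 h) growth assay: a decrease in luciferase signal from an integrated reporter in P. falciparum-infected red cells (0.1% parasitemia, 2% hematocrit) after compound exposure at 37 C indicates parasite inhibition.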

[20] = qHTS for Inhibitors of ATXN expression: Validation of Cytotoxic Assay (AID 588349); details: cytotoxicity counter-screen for ATXN expression inhibitors, cell viability; series mostly up to 57.1 µM; also: potency is read from the fitted curve at half-maximal effect
In short: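 Cytotoxicity counter-screen: ATP-based luminescent viability (CellTiter Glo) after 72 hr exposure of HEK293 cells to a compound titration at 37 degrees C.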

[21] = qHTS for Inhibitors of ATXN expression: Validation (AID 588378); details: cell-based ATXN2 expression reporter assay, luminescence; series mostly up to 57.1 µM; also: potency is read from the fitted curve at half-maximal effect; nearly all actives have a fitted effect of over 75% in size
In short: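 Cells: HEK293-ATXN2-FFLuc, phenol-red free DMEM, 2 h attachment. Compound pin-transfer, 24 h, 37 degrees C, 5% CO2. CellTiter-Fluor 30 min, Ex405/Em525; Bright-Glo 5 min, luminescence 2 s exposure.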

O=C1NCN(c2ccccc2)C12CCN(C(c1cc3ccccc3o1)c1nnnn1C1CCCC1)CC2 (configuration not stated)
Potency [1]: inconclusive: 11.2 µM [activator, partial curve, poor fit]

CCn1c(O)c(C=Nc2ccc(N3CCOCC3)cc2)c(=O)n(CC)c1=S
Potency [1]: inconclusive: 7.08 µM [activator, full curve]

O=c1[nH]c(O)c(C=Nc2ccccc2Sc2ccccc2)c(=O)[nH]1
Potency [1]: inconclusive: 0.398 µM [activator, partial curve]

Nc1c(C(=O)Nc2ccc(Br)cc2F)sc2nc3c(cc12)N1CCC3CC1
activation [1]: inconclusive: 60.8% [activator]

CCOC(=O)[C@]12Cc3ccc(C)cc3[C@H]1N(C1CCCCC1)C(=O)c1cc(OC)ccc12
Potency [1]: inconclusive: 15.8 µM [activator, partial curve, poor fit]

COc1ccc(CCN)cc1O
Potency [2]: inconclusive: 25.1 µM [activator, partial curve, poor fit]
activity change, negative = inhibition [3]: inconclusive: -17.9% [phenotype inactive]
Potency [4]: inactive
Potency [5]: inconclusive: 15.8 µM [inhibitor, single point]
Potency [6]: inactive
Potency [7]: inconclusive: 0.0008 µM [inhibitor, full curve, poor fit]
Potency [8]: inconclusive: 35.5 µM [activator, single point]

O=C(Cc1ccc(Cl)c(Cl)c1)N1CCCCC1CN1CCCC1 (configuration not stated)
Potency [9]: inactive
Potency [10]: active: 5.01 µM
Potency [11]: inconclusive: 1.12 µM [inhibitor, full curve]
Potency [12]: inconclusive: 11.2 µM [inhibitor, partial curve, poor fit]
Potency [13]: active: 7.94 µM
Potency [14]: inconclusive: 8.91 µM [inhibitor, partial curve]
Potency [7]: inconclusive: 10 µM [inhibitor, full curve]
Potency [8]: inactive
Potency [15]: inactive
Potency [16]: inactive
Potency [17]: inactive
Potency [18]: inconclusive: 11.7 µM [inhibitor, single point]
Potency [19]: inconclusive: 16.5 µM [inhibitor, single point]
Potency [20]: inconclusive: 20 µM [cytotoxic, partial curve, poor fit]
Potency [21]: inconclusive: 14.1 µM [inhibitor, partial curve, poor fit]
